Reference: US20210261570A1, “ANTIBIOTIC RESISTANCE BREAKERS” (KING'S COLLEGE LONDON, priority 2017, published 2021)
“Also recorded” adds a separate entry of the source.

Legend:
EMRSA 15 strain = assay: Reserpine assay; format: cell-based, S. aureus; details: compound at 0.25×MIC with reserpine
Description: (§1) A simple plate based method was used as described by Beyer et al. (24). […] Reserpine was added at a final concentration of 10 µg/mL (made up at 40 μg/mL in TSB, 50 μL per well). The bacteria were added at an OD of 0.01 in TSB (100 μL/well). The plate was a normal clear plate as used for MICs. OD was read every 30 minutes for 9 hours (the literature states 7 hours, but this is strain-dependent). Blanks of TSB and water were added to ensure no infections were present.
(§2) The mechanism of inhibition for reserpine involves direct binding to and competitive inhibition of the efflux pump during drug/H^+ antiport. This assay was validated as a method for testing active efflux of fluoroquinolones in Staphylococcus strains by Beyer et al. (24).

MSSA 9144 strain = assay: Reserpine assay; format: cell-based, S. aureus; details: compound at 0.25×MIC with reserpine
Description: as §1, §2

Structure (SMILES) | efflux by the strain (reserpine assay) (EMRSA 15 strain) | efflux by the strain (reserpine assay) (MSSA 9144 strain)
O=C(O)c1cn(C2CC2)c2cc(N3CCNCC3)c(F)cc2c1=O [Ciprofloxacin, ciprofloxacin, reference compound] | effluxed | effluxed
O=C(O)c1cn(C2CC2)c2cc(N3CCN(Cc4cccc5ccccc45)CC3)c(F)cc2c1=O [ML-77-005] | cannot be effluxed; also recorded: not effluxed | cannot be effluxed; also recorded: not effluxed
